# Laboratory results from the supplement of paper PMC4840960.
# Some of the results follow. Part of the spread comes from offsets between plates or batches.
# Tested on: E18 rat cortical neuron-glia co-culture
# Assay: total nuclei (DAPI) / Olig2+ nuclei (ratio); higher = more depletion of OPC/OL lineage cells
# Details: treatment time: 8 days (DIV5-DIV13)
SMILES,total nuclei (1 µM),total nuclei (5 µM)
COCc1c(C(C)C)nc(C(C)C)c(/C=C/[C@@H](O)C[C@@H](O)CC(=O)O)c1-c1ccc(F)cc1 [Cerivastatin],19,> 40
NNC(=O)c1ccncc1 [Isoniazid],3.55,4
CC(=O)OCC(=O)[C@@]1(O)CC[C@H]2[C@@H]3CCC4=CC(=O)C=C[C@]4(C)[C@H]3[C@@H](O)C[C@@]21C [Prednisolone acetate],3.78,4.3
CC(C)(C)NC(=O)[C@H]1CC[C@H]2[C@@H]3CC[C@H]4NC(=O)C=C[C@]4(C)[C@H]3CC[C@]12C [Finasteride],2.9,3
CCOC(=O)c1ncn2c1CN(C)C(=O)c1cc(F)ccc1-2 [Flumazenil],5.18,6.6
c1ccc(-c2ccc(C(c3ccccc3)n3ccnc3)cc2)cc1 (stereo unspecified) [Bifonazole],3.01,11.2
CN1C(C(=O)Nc2ccccn2)=C(O)c2ccccc2S1(=O)=O [Piroxicam],2.86,2.9
O=C1NC(=O)C(c2ccccc2)(c2ccccc2)N1 [Phenytoin],4.02,2.4
CCCOc1ccc(C(=O)OCCN(CC)CC)cc1N [Proxymetacaine],2.73,3.2
CCC1(c2ccccc2)C(=O)NCNC1=O [Primidone],2.76,2.8
O=C(O)c1cccnc1 [Niacin],4.17,4.5
CCCNC(C)C(=O)Nc1ccccc1C (stereo unspecified) [Prilocaine],3.9,4
Cc1nnc(SCC2=C(C(=O)O)N3C(=O)[C@@H](NC(=O)Cn4cnnn4)[C@H]3SC2)s1 [Cefazolin],3.2,2.9
